# According to the supplement of paper PMC9135407:
# Several values for one entry are separate records, joined by “and”; a condition that tells them apart may be missing. Equal values may be shown once. Where a name gives a salt, the structure may show the parent alone. ± gives the standard deviation of the averaged measurements. The list shows a part of the results. Plates or batches differ in their baseline, so values are only roughly comparable.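 Assay uses culture-activated primary human stellate myofibroblasts; lipid droplet recovery indicates inactivation. Measured: proportion of Hoechst-counted cells over a plate-specific Bodipy cutoff, duplicate wells, DMSO and nortriptyline as per-plate negative and positive controls. A hit scores, control-normalized, above the plate's top-tenth-percentile nortriptyline wells or ranks among its three best wells. Final well concentrations not reported.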
# Test system: primary human hepatic stellate cells (donor 1)
# Assay: percent Bodipy-positive cells; higher = more lipid droplet accumulation
# Conditions: 48 h
# [1] = library stock concentration: 10 mM
# [2] = library stock concentration: 3.33 mM
compound,measurement,setting,value
CCN(CC)CCNC(=O)c1ccc(NS(C)(=O)=O)cc1 [Sematilide monohydrochloride monohydrate],percent Bodipy-positive cells,[1],35.3 ± 13%
"O=C1N[C@H](C(=O)O)CS1 [4-Thiazolidinecarboxylic acid, 2-oxo-, (R)- [CAS]]",percent Bodipy-positive cells,[1],8.42 ± 7%
C[C@H](N[C@@H](CCc1ccccc1)C(=O)O)C(=O)N1CCC[C@H]1C(=O)O [Enalaprilat dihydrate],percent Bodipy-positive cells,[1],13.9 ± 1.2%
C[C@H](N[C@@H](CCc1ccccc1)C(=O)O)C(=O)N1CCC[C@H]1C(=O)O [Enalaprilat Dihydrate],percent Bodipy-positive cells,[2],10.2 ± 0.79%
same,percent Bodipy-positive cells,[1],26.3 ± 22%
C[C@H](N[C@@H](CCc1ccccc1)C(=O)O)C(=O)N1CCC[C@H]1C(=O)O,percent Bodipy-positive cells,[1],7.5 ± 4.2%
C[C@H](N[C@@H](CCc1ccccc1)C(=O)O)C(=O)N1CCC[C@H]1C(=O)O [Enalaprilat],percent Bodipy-positive cells,library stock concentration: 5.7 mM,7.34 ± 3.9%
NC(=O)N1CCC(CC(=O)N2CCC([C@H]3c4ncc(Br)cc4CCc4cc(Cl)cc(Br)c43)CC2)CC1 [Lonafarnib],percent Bodipy-positive cells,[2],18.2 ± 0.41%
same,percent Bodipy-positive cells,[1],64.2 ± 5.9%
O=C1NC(=O)/C(=C\c2cccc(C(F)(F)F)c2)S1 [PIM12 kinase inhibitor V],percent Bodipy-positive cells,library stock concentration: 80 uM,9.46 ± 6.5%
same,percent Bodipy-positive cells,library stock concentration: 400 uM,13 ± 4.1%
same,percent Bodipy-positive cells,library stock concentration: 2 mM,9.49 ± 3.1%
same,percent Bodipy-positive cells,[1],7.13 ± 2.1%
CC(=O)[C@@]12O[C@](C)(c3ccccc3)O[C@@H]1C[C@H]1[C@@H]3CCC4=CC(=O)CC[C@]4(C)[C@H]3CC[C@@]12C,percent Bodipy-positive cells,[1],19.7 ± 0.45%
NC(=O)N[C@@H](CCC(=O)O)C(=O)O,percent Bodipy-positive cells,[1],30.9 ± 16%
COCCCC/C(=N\OCCN)c1ccc(C(F)(F)F)cc1 [Fluvoxamine maleate],percent Bodipy-positive cells,,52 ± 13%
same,percent Bodipy-positive cells,[2],38.3 ± 5.6%
same,percent Bodipy-positive cells,[1],61.7% and 51.5%
COCCCC/C(=N\OCCN)c1ccc(C(F)(F)F)cc1 [Fluvoxamine],percent Bodipy-positive cells,[1],66 ± 8.4%
CN(C)CCC=C1c2ccccc2Sc2ccc(Cl)cc21 [Chlorprothixene],percent Bodipy-positive cells,[1],98.2 ± 1.9%
CCCCCCCCCCCCCCCCOC[C@H](COP(=O)([O-])OCC[N+](C)(C)C)SC(=O)CCCCCC [Heptanoyl thio-PC],percent Bodipy-positive cells,library stock concentration: 1 mM,16.5 ± 3.1%
C[C@]12CCC(=O)C=C1CC[C@@H]1[C@@H]2C(=O)C[C@@]2(C)[C@H]1CC[C@]2(O)C(=O)CO [Cortisone],percent Bodipy-positive cells,,23.8 ± 3.2%
same,percent Bodipy-positive cells,[1],38.2 ± 4.8%
C[C@]12CCC(=O)C=C1CC[C@@H]1[C@@H]2C(=O)C[C@@]2(C)[C@H]1CC[C@]2(O)C(=O)CO,percent Bodipy-positive cells,[1],3.98 ± 1.4%
COC(=O)[C@H](c1ccccc1Cl)N1CCc2sccc2C1 [Clopidogrel],percent Bodipy-positive cells,[2],9.83 ± 5.2%
same,percent Bodipy-positive cells,[1],20.5 ± 0.92%
COC(=O)[C@H](c1ccccc1Cl)N1CCc2sccc2C1 [clopidogrel],percent Bodipy-positive cells,[1],35.4 ± 2.2%
COC(=O)[C@H](c1ccccc1Cl)N1CCc2sccc2C1 [Clopidogrel sulfate],percent Bodipy-positive cells,library stock concentration: 4.8 mM,9.27 ± 0.73%
same,percent Bodipy-positive cells,library stock concentration: 6.2 mM,5.35 ± 0.37%
same,percent Bodipy-positive cells,[1],36.7 ± 3%

# 2 entries from above, bar-delimited:
compound | measurement | setting | value
C[C@H](N[C@@H](CCc1ccccc1)C(=O)O)C(=O)N1CCC[C@H]1C(=O)O [Enalaprilat dihydrate] | percent Bodipy-positive cells | [1] | 13.9 ± 1.2%
C[C@H](N[C@@H](CCc1ccccc1)C(=O)O)C(=O)N1CCC[C@H]1C(=O)O [Enalaprilat Dihydrate] | percent Bodipy-positive cells | [2] | 10.2 ± 0.79%
